Data source: PubChem BioAssay AID652243 (Drosophila RNAi Screening Center, 2013)
The deposit covers about 24,000 reagents; shown is a random part of those that have a named target and a result. Over the whole deposit, 246 (1%) were called active. 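Plates not normalised; calls are printed but the firefly/Renilla ratio behind them is not deposited; fold cut for lowering reported inconsistently.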 Raw values vary from plate to plate and are shown uncorrected. The numbers tell different reagents against one gene apart. Not stated in the record: the amount of reagent.

Purpose: 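Fly genes required for human androgen receptor driven transcription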 (primary screen)
Cells: Drosophila S2R+ cells
Reagent: long dsRNA against Drosophila genes
Timing: 72 h (48 h, then 24 h hormone)
Treatment: synthetic androgen R1881 at 10 nM for 24 h
Detection: 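Per-well raw luminescence of the androgen-driven firefly reporter and of the Renilla control, two replicates each, without normalisation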
Scale: firefly reporter light: higher = more light from androgen-responsive reporter; Renilla control light: higher = more constitutive control signal (cell number, transfection)
Rule for the call: 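Across duplicate plates, a knock-down whose log firefly/Renilla ratio shifted a set fold down or up from the GFP/LacZ control mean was a hit; the downward cut appears as both 1.5 and 3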
Calls: active = hit: reporter lowered or raised; inactive = no hit

With CG17027 #1, what does the deposit list?
firefly reporter light, replicate 1: 94782; firefly reporter light, replicate 2: 34290; Renilla control light, replicate 1: 1.51e6; Renilla control light, replicate 2: 7.10e5; Call: inactive

What is on record for CG17027 #2?
firefly reporter light, replicate 1: 8.82e5; firefly reporter light, replicate 2: 7.92e5; Renilla control light, replicate 1: 7.91e5; Renilla control light, replicate 2: 7.89e5; Call: inactive

For CG17027 #3, what was measured?
Call: inactive

For CG11368, how do the results read?
firefly reporter light, replicate 1: 2.04e5; firefly reporter light, replicate 2: 1.49e5; Renilla control light, replicate 1: 2.07e6; Renilla control light, replicate 2: 2.20e6; Call: inactive

For CG15247 #1, what does the deposit list?
firefly reporter light, replicate 1: 1.62e5; firefly reporter light, replicate 2: 2.07e5; Renilla control light, replicate 1: 2.35e6; Renilla control light, replicate 2: 2.57e6; Call: inactive

How did the screen score CG15247 #2?
firefly reporter light, replicate 1: 5.77e5; firefly reporter light, replicate 2: 5.78e5; Renilla control light, replicate 1: 1.03e6; Renilla control light, replicate 2: 1.19e6; Call: inactive

For CG5742 #1, what was measured?
firefly reporter light, replicate 1: 8.69e5; firefly reporter light, replicate 2: 1.93e5; Renilla control light, replicate 1: 9.01e5; Renilla control light, replicate 2: 3.95e5; Call: inactive

For CG5742 #2, how do the results read?
firefly reporter light, replicate 1: 4.79e5; firefly reporter light, replicate 2: 3.96e5; Renilla control light, replicate 1: 1.24e6; Renilla control light, replicate 2: 1.43e6; Call: inactive

With CG12814 #1, how do the results read?
firefly reporter light, replicate 1: 1.54e5; firefly reporter light, replicate 2: 1.62e5; Renilla control light, replicate 1: 8.83e5; Renilla control light, replicate 2: 7.79e5; Call: inactive

How did the screen score CG12814 #2?
firefly reporter light, replicate 1: 95502; firefly reporter light, replicate 2: 92062; Renilla control light, replicate 1: 2.07e6; Renilla control light, replicate 2: 1.35e6; Call: inactive

Which result is listed for Fpgs1 #1?
firefly reporter light, replicate 1: 4.74e5; firefly reporter light, replicate 2: 6.38e5; Renilla control light, replicate 1: 3.75e6; Renilla control light, replicate 2: 4.61e6; Call: inactive

How did the screen score Fpgs1 #2?
firefly reporter light, replicate 1: 5.97e5; firefly reporter light, replicate 2: 7.15e5; Renilla control light, replicate 1: 6.42e5; Renilla control light, replicate 2: 7.02e5; Call: inactive

Reprinted from above for reference:
CG17027 #1 | firefly reporter light, replicate 1: 94782; firefly reporter light, replicate 2: 34290; Renilla control light, replicate 1: 1.51e6; Renilla control light, replicate 2: 7.10e5; Call: inactive
CG17027 #2 | firefly reporter light, replicate 1: 8.82e5; firefly reporter light, replicate 2: 7.92e5; Renilla control light, replicate 1: 7.91e5; Renilla control light, replicate 2: 7.89e5; Call: inactive
